The values that follow come from patent US9399904B2, “Oil recovery system and method” (SHELL OIL COMPANY, priority 2013, dated 2016).

The series in a line: Oil recovery from oil saturated formation core by brine displacement followed by DMS displacement. As for the experimental part:
Incremental recovery of oil from a formation core using an oil recovery formulation consisting of dimethyl sulfide following oil recovery from the core by water-flooding was measured to evaluate the effectiveness of DMS as a tertiary oil recovery agent.
Two 5.02 cm long Berea sandstone cores with a core diameter of 3.78 cm and a permeability between 925 and 1325 mD were saturated with a brine having a composition as set forth in Table 7.
After saturation of the cores with brine, the brine was displaced by a Middle Eastern Asphaltic crude oil having the characteristics as set forth above in Table 3 to saturate the cores with oil.
Oil was recovered from each oil saturated core by the addition of brine to the core under pressure and by subsequent addition of DMS to the core under pressure. Each core was treated as follows to determine the amount of oil recovered from the core by addition of brine followed by addition of DMS. Oil was initially displaced from the core by addition of brine to the core under pressure. A confining pressure of 1 MPa was applied to the core during addition of the brine, and the flow rate of brine to the core was set at 0.05 ml/min. The core was maintained at a temperature of 50° C. during displacement of oil from the core with brine. Oil was produced and collected from the core during the displacement of oil from the core with brine until no further oil production was observed (24 hours). After no further oil was displaced from the core by the brine, oil was displaced from the core by addition of DMS to the core under pressure. DMS was added to the core at a flow rate of 0.05 ml/min for a period of 32 hours for the first core and for a period of 15 hours for the second core. Oil displaced from the core during the addition of DMS to the core was collected separately from the oil displaced by the addition of brine to the core.
The oil samples collected from each core by brine displacement and by DMS displacement were isolated from water by extraction with dichloromethane, and the separated organic layer was dried over sodium sulfate. After evaporation of volatiles from the separated, dried organic layer of each oil sample, the amount of oil displaced by brine addition to a core and the amount of oil displaced by DMS addition to the core were weighed. Volatiles were also evaporated from a sample of the Middle Eastern asphaltic oil to be able to correct for loss of light-end compounds during evaporation.

Where [1] appears, read: Core 1, DMS 0.05 ml/min for 32 hours after brine displacement.
Where [2] appears, read: Core 2, DMS 0.05 ml/min for 15 hours after brine displacement.

For `CSC` [Dimethyl Sulfide, dimethyl sulfide], under setting [1], the “Oil produced DMS displacement” value amounted to 3.5 mL and the “Oil produced DMS displacement (of % oil initially in core)” value was found to be 32%. Besides, under setting [2], the “Oil produced DMS displacement” value came to 3.3 mL and the “Oil produced DMS displacement (of % oil initially in core)” value stood at 30%.
